Assay [1] deals with T1, HSPB8 (human (endogenous in left ventricle tissue)) (UniProt Q9UJY1).
T1 sequence: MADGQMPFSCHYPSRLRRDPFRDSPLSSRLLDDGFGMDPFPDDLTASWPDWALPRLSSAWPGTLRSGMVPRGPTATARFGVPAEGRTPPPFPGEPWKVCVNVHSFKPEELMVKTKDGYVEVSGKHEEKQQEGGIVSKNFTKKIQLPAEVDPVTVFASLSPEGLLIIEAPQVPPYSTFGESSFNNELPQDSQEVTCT
Briefly: co-IP; reciprocal co-immunoprecipitation from human LV myofilament-enriched protein lysate with antibody crosslinked to Dynabeads Protein G; non-specific IgG control; western blot. A general note: Immunoblotting shows a protein as a band on a membrane.

The chains behind the UniProt entries cited, without tags or fusion partners.
UniProt O95817: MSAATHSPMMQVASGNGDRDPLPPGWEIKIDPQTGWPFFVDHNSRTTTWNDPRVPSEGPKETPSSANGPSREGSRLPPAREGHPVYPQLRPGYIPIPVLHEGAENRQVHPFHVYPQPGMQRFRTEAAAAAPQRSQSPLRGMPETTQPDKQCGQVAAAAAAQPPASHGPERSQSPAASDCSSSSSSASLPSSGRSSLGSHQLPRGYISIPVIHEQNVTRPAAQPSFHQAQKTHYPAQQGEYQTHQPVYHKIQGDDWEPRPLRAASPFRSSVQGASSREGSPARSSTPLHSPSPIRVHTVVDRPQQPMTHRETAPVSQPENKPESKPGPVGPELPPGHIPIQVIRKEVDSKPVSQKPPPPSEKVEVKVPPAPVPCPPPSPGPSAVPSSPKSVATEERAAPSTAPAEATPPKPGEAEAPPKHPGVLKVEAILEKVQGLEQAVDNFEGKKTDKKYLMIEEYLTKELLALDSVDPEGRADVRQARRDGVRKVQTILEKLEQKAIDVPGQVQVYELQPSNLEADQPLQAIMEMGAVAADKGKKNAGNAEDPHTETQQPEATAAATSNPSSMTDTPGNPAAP

Assay [2] has as its target Bcl2-associated athanogene 3 (BAG3) (human (endogenous in left ventricle tissue)) (UniProt O95817). Described as above.

No constants are given. Whether binding was seen depends on the method and setting. Binding seen in cells or lysates may run through a third protein. Some entries that bind do so weakly or less than the wild type.

Turning to “Bcl2-associated athanogene 3 (BAG3) (from UniProt O95817 1-575)”, the binding entry in assay [1] is recorded as “binds”.

B1: HSPB8 (protein, UniProt Q9UJY1 1-196)
chain: MADGQMPFSCHYPSRLRRDPFRDSPLSSRLLDDGFGMDPFPDDLTASWPDWALPRLSSAWPGTLRSGMVPRGPTATARFGVPAEGRTPPPFPGEPWKVCVNVHSFKPEELMVKTKDGYVEVSGKHEEKQQEGGIVSKNFTKKIQLPAEVDPVTVFASLSPEGLLIIEAPQVPPYSTFGESSFNNELPQDSQEVTCT
Consider B1, for which, in assay [2], the binding entry was “binds”.

Source of the values: paper PMC8134551.
